The experiment addresses Human β-NGF (human) (UniProt P01138). Nature of the experiment: phage ELISA: phage-displayed clone on NGF-coated wells (left bar of each pair), read at 450 nm; control: HSA-coated wells (right bar). A general note: An ELISA detects its analyte on a solid surface through an enzyme-linked reagent.

The chains behind the UniProt entries cited, without tags or fusion partners. Where a name states a change or a piece, a line headed by the entry shows the natural chain unless it says otherwise.
UniProt P01138: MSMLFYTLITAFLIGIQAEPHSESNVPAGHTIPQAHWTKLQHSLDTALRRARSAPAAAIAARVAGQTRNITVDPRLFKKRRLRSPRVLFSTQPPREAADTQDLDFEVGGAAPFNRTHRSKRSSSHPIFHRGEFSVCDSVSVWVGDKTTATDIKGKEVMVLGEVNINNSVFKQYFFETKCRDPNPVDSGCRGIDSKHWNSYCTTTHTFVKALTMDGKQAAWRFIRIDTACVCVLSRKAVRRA

No constants are given. Whether binding was seen depends on the method and setting. Some results given as binding are weak or reduced against the parent protein; the word gives no strength.

For the molecule MADEEKLPPGWGKPWSARGRVTYINLITVAEQWERPS (designed binder) [NP-E3], the binding entry is reported as “binds”. The value for MADEEKLPPGWFKCWGRGGRVWYMNWITVAGQWERPSG (designed binder) [NP-C5] was “binds”.

Source of the values: patent US20140005126A1, “SCAFFOLD PEPTIDES” (ISOGENICA LTD, priority 2010, published 2014).
